Data as given in PubChem BioAssay (NCATS).
Inconclusive results, whose numbers are uncertain, are shown with a selection of clear calls. For part of these data: Potencies of inconclusive entries are doubtful fits and often do not repeat. The source made the active and inactive calls. Calls come from the whole dose curve; as a rule, active = well fitted curve in the direction sought with a large enough effect; inconclusive = small, poorly fitted or top-dose-only effect, or another doubt; inactive = no such curve, though single readings can be large; an effect the other way counts as inactive or inconclusive. Residues, ends and D or L forms follow the SMILES beside them.

Experiments:
[1] = Quantitative High-Throughput drug screen in 47 multiple myeloma cell lines against the NCATS MIPE library collection: JIM1_ECACC cell viability assay (AID 1918964); settings: JIM1 myeloma viability, CellTiter-Glo ATP luminescence, 48 h; viability (% of DMSO): at 45.8 µM (top of the series)
Procedure, shortened: (§1)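 We plated 500 myeloma cells per well, pinned in MIPE 4.0 compounds, and incubated for 48 hours at 37C. ATP was then quantified with CellTiter-Glo, with DMSO and media-only wells defining 100% and 0%.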

[2] = Quantitative High-Throughput drug screen in 47 multiple myeloma cell lines against the NCATS MIPE library collection: INA6_PLB cell viability assay (AID 1918965; note: nearly all actives have a fitted effect of over 55% in size); settings: INA6 myeloma viability, CellTiter-Glo ATP luminescence, 48 h; viability (% of control): at 45.8 µM (top of the series)
Procedure, shortened: (§2)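 Myeloma cells (500 per well) were exposed to MIPE 4.0 compounds by pin transfer and incubated 48 hours at 37C, 5% CO2. Viability was read as ATP by CellTiter-Glo luminescence, normalised to DMSO (100%) and media-only (0%) wells.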

[3] = Quantitative High-Throughput drug screen in 47 multiple myeloma cell lines against the NCATS MIPE library collection: JJN3_DSMZ cell viability assay (AID 1918966; note: nearly all actives have a fitted effect of over 50% in size); settings: JJN3 myeloma cells viability, CellTiter-Glo ATP, 48 h; viability, % of DMSO: at 45.8 µM (top of the series)
Procedure, shortened: as §1

[4] = Quantitative High-Throughput drug screen in 47 multiple myeloma cell lines against the NCATS MIPE library collection: H1112_PLB cell viability assay (AID 1918967; note: nearly all actives have a fitted effect of over 30% in size); settings: H1112 myeloma cells viability, ATP luminescence, 48 h; viability: at 45.8 µM (top of the series)
Procedure, shortened: as §1

[5] = Quantitative High-Throughput drug screen in 47 multiple myeloma cell lines against the NCATS MIPE library collection: Karpas25_ECACC cell viability assay (AID 1918968; note: nearly all actives have a fitted effect of over 35% in size); settings: Karpas25 myeloma viability, CellTiter-Glo ATP, 48 h; viability (% of control): at 45.8 µM (top of the series)
Procedure, shortened: as §1

[6] = Quantitative High-Throughput drug screen in 47 multiple myeloma cell lines against the NCATS MIPE library collection: KMS12BM_JCRB cell viability assay (AID 1918971); note: nearly all actives have a fitted effect of over 35% in size
Procedure, shortened: (§3)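 Viability readout: CellTiter-Glo luminescence following 5 min room-temperature incubation with reagent. Prior exposure: 48 h, 37C, humidified 5% CO2, 500 cells per well.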

[7] = Quantitative High-Throughput drug screen in 47 multiple myeloma cell lines against the NCATS MIPE library collection: KMS20_JCRB cell viability assay (AID 1918973); settings: CellTiter-Glo ATP, 48 h; viability (% of DMSO): at 45.8 µM (top of the series); note: nearly all actives have a fitted effect of over 45% in size
Procedure, shortened: as §1

[8] = Quantitative High-Throughput drug screen in 47 multiple myeloma cell lines against the NCATS MIPE library collection: KMS21BM_JCRB cell viability assay (AID 1918974); settings: ATP luminescence, 48 h; viability: at 45.8 µM (top of the series) unless noted
Procedure, shortened: as §1

[9] = Quantitative High-Throughput drug screen in 47 multiple myeloma cell lines against the NCATS MIPE library collection: KMS26_JCRB cell viability assay (AID 1918975); settings: KMS26 myeloma cells viability, CellTiter-Glo ATP, 48 h; viability (% of DMSO): at 45.8 µM (top of the series); note: nearly all actives have a fitted effect of over 45% in size
Procedure, shortened: as §3

[10] = Quantitative High-Throughput drug screen in 47 multiple myeloma cell lines against the NCATS MIPE library collection: MMM1_PLB cell viability assay (AID 1918976); note: nearly all actives have a fitted effect of over 35% in size
Procedure, shortened: (§4)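 Myeloma cells (500/well) treated with MIPE 4.0 compounds for 48 h at 37 °C, 5% CO2. Viability read as ATP via CellTiter-Glo luminescence after 5 min at RT; DMSO-only wells = 100%, media-only = 0% viability.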

[11] = Quantitative High-Throughput drug screen in 47 multiple myeloma cell lines against the NCATS MIPE library collection: MOLP8_DSMZ cell viability assay (AID 1918977); settings: MOLP8 myeloma viability, CellTiter-Glo ATP luminescence, 48 h; viability (% of control): at 45.8 µM (top of the series); note: nearly all actives have a fitted effect of over 45% in size
Procedure, shortened: as §4

[12] = Quantitative High-Throughput drug screen in 47 multiple myeloma cell lines against the NCATS MIPE library collection: NCIH929_DSMZ cell viability assay (AID 1918978); note: nearly all actives have a fitted effect of over 35% in size
Procedure, shortened: as §4

[13] = Quantitative High-Throughput drug screen in 47 multiple myeloma cell lines against the NCATS MIPE library collection: OCIMY1_PLB cell viability assay (AID 1918979); note: nearly all actives have a fitted effect of over 35% in size
Procedure, shortened: as §4

[14] = Quantitative High-Throughput drug screen in 47 multiple myeloma cell lines against the NCATS MIPE library collection: MM1S_ATCC cell viability assay (AID 1918980); note: nearly all actives have a fitted effect of over 45% in size
Procedure, shortened: as §4

[15] = Quantitative High-Throughput drug screen in 47 multiple myeloma cell lines against the NCATS MIPE library collection: KMS28PE_JCRB cell viability assay (AID 1918983); note: nearly all actives have a fitted effect of over 35% in size
Procedure, shortened: as §4

[16] = Quantitative High-Throughput drug screen in 47 multiple myeloma cell lines against the NCATS MIPE library collection: KMS27_JCRB cell viability assay (AID 1918970); settings: KMS27 myeloma cells, CellTiter-Glo ATP viability, 48 h; viability (% of DMSO): at 45.8 µM (top of the series); note: nearly all actives have a fitted effect of over 30% in size
Procedure, shortened: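 Luminescent ATP read-out (CellTiter-Glo, 5 min at room temperature) after 48 h compound exposure of 500 KMS27_JCRB cells per well; DMSO wells define full viability and media-only wells zero.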

[17] = Quantitative High-Throughput drug screen in 47 multiple myeloma cell lines against the NCATS MIPE library collection: KMS12PE_JCRB cell viability assay (AID 1918972); settings: KMS12PE myeloma viability, CellTiter-Glo ATP, 48 h; viability: at 45.8 µM (top of the series); note: nearly all actives have a fitted effect of over 30% in size
Procedure, shortened: as §2

[18] = Quantitative High-Throughput drug screen in 47 multiple myeloma cell lines against the NCATS MIPE library collection: MM1R_ATCC cell viability assay (AID 1918981); note: nearly all actives have a fitted effect of over 35% in size
Procedure, shortened: as §4

[19] = Quantitative High-Throughput drug screen in 47 multiple myeloma cell lines against the NCATS MIPE library collection: LP1_DSMZ cell viability assay (AID 1918982); note: nearly all actives have a fitted effect of over 35% in size
Procedure, shortened: as §4
Potency is the fitted concentration of half-maximal effect.

| SMILES | Potency [1] | Potency [2] | Potency [3] | Potency [4] | Potency [5] | Potency [6] | Potency [7] | Potency [8] | Potency [9] | Potency [10] | Potency [11] | Potency [12] | Potency [13] | Potency [14] | Potency [15] | Potency [16] | Potency [17] | Potency [18] | Potency [19] | viability (% of DMSO) [7] |
| --- | --- | --- | --- | --- | --- | --- | --- | --- | --- | --- | --- | --- | --- | --- | --- | --- | --- | --- | --- | --- |
| COC(=O)C1=C(C)NC(C)=C(C(=O)OCCCN2CCC(c3ccccc3)(c3ccccc3)CC2)C1c1cccc([N+](=O)[O-])c1 (configuration not stated) | inconclusive: 0.0833 µM [cytotoxic, full curve, poor fit] | inconclusive: 3.32 µM [cytotoxic, full curve, poor fit] | inconclusive: 0.0074 µM [cytotoxic, full curve, poor fit] | inactive | inconclusive: 0.003 µM [cytotoxic, full curve, poor fit] | inconclusive: 1.66 µM [cytotoxic, full curve, poor fit] | inactive | inconclusive: 33.2 µM [rising, single point] | inconclusive: 41.8 µM [cytotoxic, partial curve, poor fit] | inconclusive: 4.69 µM [cytotoxic, partial curve, poor fit] | inactive | inactive | inactive | inconclusive: 13.2 µM [cytotoxic, partial curve, poor fit] | inactive | – | – | – | – | – |
| CCN(CC)CCOc1ccc(C(=C(Cl)c2ccccc2)c2ccccc2)cc1 | inconclusive: 2.64 µM [cytotoxic, partial curve, poor fit] | inactive | inconclusive: 33.2 µM [cytotoxic, single point] | inconclusive: 26.4 µM [cytotoxic, single point] | – | inactive | inconclusive: 37.2 µM [cytotoxic, partial curve, poor fit] | active: 18.7 µM | inconclusive: 37.2 µM [cytotoxic, single point] | inactive | inactive | inconclusive: 37.2 µM [cytotoxic, single point] | – | inconclusive: 23.5 µM [cytotoxic, partial curve, poor fit] | inactive | inconclusive: 14.8 µM [cytotoxic, partial curve, poor fit] | inconclusive: 29.6 µM [cytotoxic, single point] | inactive | – | – |
| C=CCc1cc(OC)c(O)c(C(=O)NCCO)c1 | inconclusive: 0.0083 µM [cytotoxic, full curve, poor fit] | inactive | inconclusive: 5.9 µM [cytotoxic, full curve, poor fit] | inactive | – | inconclusive: 11.8 µM [cytotoxic, single point] | inconclusive: 37.2 µM [rising, single point] | – | inactive | inconclusive: 2.96 µM [cytotoxic, full curve, poor fit] | inconclusive: 11.8 µM [cytotoxic, single point] | – | inactive | inactive | – | inconclusive: 0.001 µM [cytotoxic] | inactive | inactive | – | – |
| CCCCc1ccc(NS(=O)(=O)c2ccc(C)c(C(=O)N3CCN(c4cccc(C)c4C)CC3)c2)cc1 | inconclusive: 0.059 µM [cytotoxic, full curve, poor fit] | inconclusive: 16.6 µM [cytotoxic, partial curve, poor fit] | active: 23.5 µM | inconclusive: 20.9 µM [cytotoxic, partial curve] | inconclusive: 20.9 µM [cytotoxic, partial curve] | – | inconclusive: 26.4 µM [cytotoxic, partial curve, poor fit] | inconclusive: 33.2 µM [rising, single point] | – | – | inconclusive: 18.7 µM [cytotoxic, partial curve, poor fit] | inconclusive: 26.4 µM [cytotoxic, single point] | inconclusive: 37.2 µM [cytotoxic, single point] | – | active: 23.5 µM | – | inconclusive: 10.5 µM [cytotoxic, single point] | inconclusive: 20.9 µM [cytotoxic, partial curve] | – | – |
| COC(=O)[C@H](Cc1ccccc1)NC(=O)[C@@H](N)CC(=O)O (H-Asp-Phe-OMe) | inactive | inactive | inconclusive: 0.935 µM [cytotoxic, full curve, poor fit] | inactive | – | inactive | inconclusive: 3.32 µM [cytotoxic, partial curve, poor fit] | inconclusive: 0.132 µM [cytotoxic, full curve, poor fit] | inconclusive: 3.32 µM [cytotoxic, partial curve, poor fit] | inconclusive: 0.0166 µM [cytotoxic, full curve, poor fit] | inconclusive: 1.32 µM [cytotoxic, full curve, poor fit] | – | – | inactive | – | inactive | – | – | – | – |
| Cn1cc(-c2ccc3nnc(C(F)(F)c4ccc5ncccc5c4)n3n2)cn1 | inconclusive: 0.0074 µM [rising, full curve, poor fit] | inconclusive: 7.43 µM [cytotoxic, full curve, poor fit] | active: 0.0264 µM | inconclusive: 0.0019 µM [cytotoxic, full curve, poor fit] | – | active: 23.5 µM | inactive | inconclusive: 13.2 µM [cytotoxic, partial curve, poor fit] | inconclusive: 20.9 µM [cytotoxic, partial curve, poor fit] | active: 5.9 µM | inconclusive: 0.187 µM [cytotoxic, full curve, poor fit] | – | – | – | inactive | inconclusive: 0.0047 µM [rising, full curve, poor fit] | – | inconclusive: 2.96 µM [cytotoxic, partial curve, poor fit] | inconclusive: 23.5 µM [cytotoxic, single point] | – |
| CC(C)[C@H](N)C(=O)OCCOCn1cnc2c(=O)[nH]c(N)nc21 | inconclusive: 26.4 µM [cytotoxic, partial curve, poor fit] | inconclusive: 37.2 µM [cytotoxic, single point] | inactive | inactive | inactive | inconclusive: 0.0047 µM [rising, full curve, poor fit] | – | – | inactive | inactive | inconclusive: 16.6 µM [cytotoxic, partial curve, poor fit] | – | – | inconclusive: 0.003 µM [rising, full curve, poor fit] | active: 14.8 µM | inconclusive: 18.7 µM [cytotoxic, partial curve, poor fit] | – | – | inactive | inconclusive: 82.2% [cytotoxic] |
| CCCCC[C@H](O)C=C[C@H]1[C@H](O)CC(=O)[C@H]1CC=CCCCC(=O)O | inconclusive: 10.5 µM [cytotoxic, partial curve, poor fit] | active: 18.7 µM | inconclusive: 3.72 µM [cytotoxic, partial curve, poor fit] | inconclusive: 4.69 µM [cytotoxic, partial curve, poor fit] | – | active: 20.9 µM | inconclusive: 20.9 µM [cytotoxic, partial curve, poor fit] | inconclusive: 33.2 µM [rising, partial curve] | inconclusive: 20.9 µM [cytotoxic, partial curve, poor fit] | inconclusive: 16.6 µM [cytotoxic, partial curve, poor fit] | – | – | – | – | inactive | – | inactive | – | – | – |
| Cn1c(=O)c(F)c(Nc2ccc(I)cc2F)c2c(=O)n(C[C@@H](O)CO)cnc21 | inconclusive: 29.6 µM [cytotoxic, single point] | inconclusive: 1.18 µM [cytotoxic, partial curve, poor fit] | inconclusive: 0.0332 µM [rising, full curve, poor fit] | inconclusive: 20.9 µM [cytotoxic, partial curve] | – | inconclusive: 0.0148 µM [rising, full curve] | active: 0.0118 µM | – | inactive | – | inactive | inconclusive: 0.0047 µM [cytotoxic, full curve] | – | inconclusive: 13.2 µM [cytotoxic, partial curve] | inactive | – | active: 18.7 µM | inactive | inactive | – |
| CCC(C)n1ncn(-c2ccc(N3CCN(c4ccc(OC[C@H]5CO[C@](Cn6cncn6)(c6ccc(Cl)cc6Cl)O5)cc4)CC3)cc2)c1=O (some centres not stated) | inconclusive: 0.001 µM [cytotoxic] | inactive | inconclusive: 4.18 µM [cytotoxic, partial curve, poor fit] | inactive | – | – | – | inconclusive: 33.2 µM [rising, partial curve] | inconclusive: 8.33 µM [cytotoxic, partial curve, poor fit] | – | – | – | – | inactive | – | inconclusive: 0.0037 µM [cytotoxic, full curve, poor fit] | inconclusive: 0.935 µM [cytotoxic, full curve, poor fit] | inconclusive: 4.69 µM [cytotoxic, full curve] | inconclusive: 2.64 µM [cytotoxic, full curve] | – |
| O=P(O)(O)C(O)(Cn1ccnc1)P(=O)(O)O | inconclusive: 4.57 µM [rising, partial curve, poor fit] | inconclusive: 18.2 µM [cytotoxic, single point] | inconclusive: 0.0029 µM [rising, full curve, poor fit] | inactive | inconclusive: 0.001 µM [rising, full curve, poor fit] | inconclusive: 0.0363 µM [rising, full curve, poor fit] | inactive | – | inactive | inconclusive: 0.0018 µM [rising, full curve, poor fit] | inactive | – | – | inconclusive: 0.0006 µM | inactive | inactive | – | – | – | – |
